No constants are given. Whether binding was seen depends on the method and setting. Binding seen in cells or lysates may run through a third protein. A yes stands for co-enrichment or nearness to the bait. Other partners may have been found.
Molecular target: histone deacetylase protein HDAC1 (mouse (endogenous in R1 ESCs)) (UniProt O09106)
Experiment: affinity purification with mass spectrometry; two-step IP-iPOND in native (non-fixative) conditions: sonicated nuclear extracts (about mononucleosome size) of ESCs pulsed 10 min with EdU, immunoprecipitated with goat anti-HDAC1 antibody, eluted with competitor peptide, re-purified on streptavidin magnetic beads via biotin-EdU nascent DNA; high-resolution mass spectrometry

By UniProt entry, the sequences of proteins in these tests, tags left out.
UniProt O09106: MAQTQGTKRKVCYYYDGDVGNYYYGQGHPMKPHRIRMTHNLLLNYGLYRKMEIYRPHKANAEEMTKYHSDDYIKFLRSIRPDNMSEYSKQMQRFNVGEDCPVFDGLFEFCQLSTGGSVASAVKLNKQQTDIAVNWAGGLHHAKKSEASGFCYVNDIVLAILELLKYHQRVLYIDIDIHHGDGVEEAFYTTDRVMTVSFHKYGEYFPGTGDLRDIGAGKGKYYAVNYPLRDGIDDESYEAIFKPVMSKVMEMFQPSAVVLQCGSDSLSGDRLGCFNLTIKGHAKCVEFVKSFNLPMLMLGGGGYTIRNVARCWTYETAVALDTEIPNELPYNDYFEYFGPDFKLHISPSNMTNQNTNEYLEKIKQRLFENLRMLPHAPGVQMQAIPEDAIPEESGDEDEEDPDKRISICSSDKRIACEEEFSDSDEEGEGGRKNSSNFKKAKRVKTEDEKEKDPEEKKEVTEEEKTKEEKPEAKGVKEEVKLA
UniProt Q8CHY6: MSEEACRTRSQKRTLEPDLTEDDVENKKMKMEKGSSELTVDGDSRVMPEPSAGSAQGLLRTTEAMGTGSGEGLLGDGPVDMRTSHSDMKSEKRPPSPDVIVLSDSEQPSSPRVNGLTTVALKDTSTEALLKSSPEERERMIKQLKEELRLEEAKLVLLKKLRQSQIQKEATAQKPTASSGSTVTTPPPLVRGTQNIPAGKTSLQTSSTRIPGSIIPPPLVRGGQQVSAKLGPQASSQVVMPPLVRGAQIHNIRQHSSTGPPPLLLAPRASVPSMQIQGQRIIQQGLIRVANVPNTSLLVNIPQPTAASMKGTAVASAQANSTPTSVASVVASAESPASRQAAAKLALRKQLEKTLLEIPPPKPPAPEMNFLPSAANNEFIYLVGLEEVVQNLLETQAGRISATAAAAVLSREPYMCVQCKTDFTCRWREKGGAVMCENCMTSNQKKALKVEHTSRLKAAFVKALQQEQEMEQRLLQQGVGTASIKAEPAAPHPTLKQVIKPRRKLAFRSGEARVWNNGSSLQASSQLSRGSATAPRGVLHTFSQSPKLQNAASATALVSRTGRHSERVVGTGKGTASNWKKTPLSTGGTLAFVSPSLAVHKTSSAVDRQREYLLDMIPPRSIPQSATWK
UniProt Q8VHR5: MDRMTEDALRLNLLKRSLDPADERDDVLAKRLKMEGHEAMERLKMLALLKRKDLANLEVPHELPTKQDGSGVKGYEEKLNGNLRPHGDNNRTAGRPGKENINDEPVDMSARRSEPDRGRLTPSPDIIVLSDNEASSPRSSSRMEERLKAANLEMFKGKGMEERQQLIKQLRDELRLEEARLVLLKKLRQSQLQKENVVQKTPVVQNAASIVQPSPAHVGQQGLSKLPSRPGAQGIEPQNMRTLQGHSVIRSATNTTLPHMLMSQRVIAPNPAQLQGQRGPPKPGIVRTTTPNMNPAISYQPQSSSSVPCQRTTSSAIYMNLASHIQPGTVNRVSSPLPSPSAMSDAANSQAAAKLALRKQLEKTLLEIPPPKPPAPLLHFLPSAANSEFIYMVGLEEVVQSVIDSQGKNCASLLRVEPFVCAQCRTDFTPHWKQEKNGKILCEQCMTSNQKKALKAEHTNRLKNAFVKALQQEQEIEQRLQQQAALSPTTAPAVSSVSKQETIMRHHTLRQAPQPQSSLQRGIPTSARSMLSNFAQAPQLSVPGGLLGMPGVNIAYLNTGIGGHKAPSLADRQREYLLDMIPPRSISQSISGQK
UniProt Q8K4B0: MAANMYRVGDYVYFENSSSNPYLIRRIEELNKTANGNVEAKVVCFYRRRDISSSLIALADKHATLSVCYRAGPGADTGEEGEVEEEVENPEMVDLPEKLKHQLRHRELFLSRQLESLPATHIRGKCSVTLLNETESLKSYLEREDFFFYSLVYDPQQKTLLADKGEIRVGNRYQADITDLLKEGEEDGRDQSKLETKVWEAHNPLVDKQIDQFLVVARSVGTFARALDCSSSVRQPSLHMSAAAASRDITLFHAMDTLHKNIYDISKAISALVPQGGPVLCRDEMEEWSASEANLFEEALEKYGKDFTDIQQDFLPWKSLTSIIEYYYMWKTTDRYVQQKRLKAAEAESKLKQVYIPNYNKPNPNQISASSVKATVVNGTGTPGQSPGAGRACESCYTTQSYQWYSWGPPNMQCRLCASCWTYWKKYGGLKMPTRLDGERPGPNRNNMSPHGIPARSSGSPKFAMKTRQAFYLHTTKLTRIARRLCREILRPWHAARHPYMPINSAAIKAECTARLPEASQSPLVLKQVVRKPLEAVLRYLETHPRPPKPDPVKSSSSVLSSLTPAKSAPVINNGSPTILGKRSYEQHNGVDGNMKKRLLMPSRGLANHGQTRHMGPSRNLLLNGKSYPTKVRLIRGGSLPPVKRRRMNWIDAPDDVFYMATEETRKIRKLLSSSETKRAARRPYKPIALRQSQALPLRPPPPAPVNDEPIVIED
UniProt Q9R190: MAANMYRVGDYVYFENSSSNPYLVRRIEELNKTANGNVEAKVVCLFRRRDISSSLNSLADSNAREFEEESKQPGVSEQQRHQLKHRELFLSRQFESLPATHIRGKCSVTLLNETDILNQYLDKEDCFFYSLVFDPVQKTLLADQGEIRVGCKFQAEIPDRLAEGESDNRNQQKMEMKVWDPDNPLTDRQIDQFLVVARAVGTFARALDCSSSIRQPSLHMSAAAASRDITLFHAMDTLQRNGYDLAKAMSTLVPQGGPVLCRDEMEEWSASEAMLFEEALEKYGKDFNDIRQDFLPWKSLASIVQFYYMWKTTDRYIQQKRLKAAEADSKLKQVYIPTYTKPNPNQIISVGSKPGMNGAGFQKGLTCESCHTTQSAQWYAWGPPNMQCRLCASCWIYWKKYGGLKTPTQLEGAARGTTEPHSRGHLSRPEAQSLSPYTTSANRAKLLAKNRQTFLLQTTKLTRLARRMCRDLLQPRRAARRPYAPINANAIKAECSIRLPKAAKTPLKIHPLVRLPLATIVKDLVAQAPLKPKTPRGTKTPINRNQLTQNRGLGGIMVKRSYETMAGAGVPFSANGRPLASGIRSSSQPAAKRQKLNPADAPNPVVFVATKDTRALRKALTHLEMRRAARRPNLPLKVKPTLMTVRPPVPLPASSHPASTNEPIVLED
UniProt Q924K8: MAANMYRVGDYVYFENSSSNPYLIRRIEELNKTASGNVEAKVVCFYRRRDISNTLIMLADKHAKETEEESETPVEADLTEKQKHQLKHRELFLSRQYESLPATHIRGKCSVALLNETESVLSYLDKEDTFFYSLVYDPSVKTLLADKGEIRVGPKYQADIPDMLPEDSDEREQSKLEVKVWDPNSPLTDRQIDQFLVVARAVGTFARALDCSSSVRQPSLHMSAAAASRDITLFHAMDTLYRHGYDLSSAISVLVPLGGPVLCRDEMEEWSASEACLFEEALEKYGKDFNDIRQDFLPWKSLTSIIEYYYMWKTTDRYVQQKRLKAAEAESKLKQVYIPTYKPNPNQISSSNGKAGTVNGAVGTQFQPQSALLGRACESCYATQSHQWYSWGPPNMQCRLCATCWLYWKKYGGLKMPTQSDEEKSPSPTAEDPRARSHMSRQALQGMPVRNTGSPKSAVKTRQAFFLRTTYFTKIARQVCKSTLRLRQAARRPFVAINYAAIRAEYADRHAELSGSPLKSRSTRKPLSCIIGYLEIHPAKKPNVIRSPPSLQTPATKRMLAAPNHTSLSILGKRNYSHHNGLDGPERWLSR

Row | Substance | binding
1 | GATA zinc finger domain-containing protein 2A (GATAD2A) (from UniProt Q8CHY6 1-629) | binds
2 | GATAD2B (from UniProt Q8VHR5 1-594) | binds
3 | metastasis-associated gene 1 protein (MTA1) (from UniProt Q8K4B0 1-715) | binds
4 | metastasis-associated gene 2 protein (MTA2) (from UniProt Q9R190 1-668) | binds
5 | metastasis-associated gene 3 protein (MTA3) (from UniProt Q924K8 1-591) | binds

Reference: PMC4066787
